Test results from US7838676B2, “Beta-secretase modulators and methods of use” (Amgen Inc., priority 2005, dated 2010).
Some entries share one result that the patent states for a list of compounds.

The chains behind the UniProt entries cited, without tags or fusion partners. Residues count along the entry.
UniProt P56817, 46-501, species assumed: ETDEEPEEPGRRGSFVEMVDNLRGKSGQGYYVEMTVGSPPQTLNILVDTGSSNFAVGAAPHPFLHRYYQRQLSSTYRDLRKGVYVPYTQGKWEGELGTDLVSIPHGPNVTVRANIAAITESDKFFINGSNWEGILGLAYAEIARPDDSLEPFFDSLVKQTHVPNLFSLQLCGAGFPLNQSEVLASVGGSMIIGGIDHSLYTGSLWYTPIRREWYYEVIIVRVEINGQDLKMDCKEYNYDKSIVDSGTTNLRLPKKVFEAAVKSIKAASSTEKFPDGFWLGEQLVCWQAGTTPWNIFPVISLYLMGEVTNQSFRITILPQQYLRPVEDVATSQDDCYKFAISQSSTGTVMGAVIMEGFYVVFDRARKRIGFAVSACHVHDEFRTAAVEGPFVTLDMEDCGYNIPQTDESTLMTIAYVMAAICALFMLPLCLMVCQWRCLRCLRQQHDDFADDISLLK

Target: BACE (Homo sapiens, UniProt P56817)
Experiment: In Vitro Enzymatic BACE FRET (Fluorescence Resonance Energy Transfer) Assay
Format: biochemical
Settings: enzyme 0.2 nM, FRET substrate 50 nM, pH 4.2

IC50 [µM] | Compound
≤ 5 | CCc1ccc2c(c1)[C@@H](NC[C@@H](O)[C@H](Cc1ccccc1)NC(=O)c1cc([C@@H]3CCN(C(C)=O)C3)cc([C@H]3CCCCN3C(C)=O)c1)CC1(CCCC1)O2 [Example 14, 3-((2R)-1-acetyl-2-piperidinyl)-5-((3S)-1-acetyl-3-pyrrolidinyl)-N-((1S,2R)-3-(((4S)-6-ethyl-3,4-dihydrospiro[chromene-2,1′-cyclopentan]-4-yl)amino)-2-hydroxy-1-(phenylmethyl)propyl)benzamide]
≤ 5 | Cc1cc(C(=O)NC(Cc2ccccc2)C(O)CNC2CC3(CCCC3)Oc3ccc(C(C)C)cc32)cc(N2CCCC(C)C2)n1 [Example 83, N-((2S,3R)-3-hydroxy-4-((S)-6-isopropyl-2,2-spirocyclopentylchroman-4-ylamino)-1-phenylbutan-2-yl)-2-methyl-6-(3-methyl-piperidin-1-yl)isonicotinamide]
≤ 5 | CCc1ccc2c(c1)[C@@H](NC[C@@H](O)[C@H](Cc1ccccc1)NC(=O)c1n[nH]c3cc(F)ccc13)CC1(CCC1)O2 [Example 200, N-((1S,2R)-3-(((4S)-6-ethyl-3,4-dihydrospiro[chromene-2,1′-cyclobutan]-4-yl)amino)-2-hydroxy-1-(phenylmethyl)propyl)-6-fluoro-1H-indazole-3-carboxamide]
≤ 5 | CCc1ccc2c(c1)[C@@H](NC[C@@H](O)[C@H](Cc1ccccc1)NC(=O)c1ccnc(N3CCCCC3)c1)CC1(CCCCCC1)O2 [Example 79, N-((2S,3R)-4-((S)-6-ethyl-2,2-spirocycloheptylchroman-4-ylamino)-3-hydroxy-1-phenylbutan-2-yl)-2-(piperidin-1-yl)isonicotinamide]
≤ 5 | CCc1ccc2c(c1)[C@@H](NC[C@@H](O)[C@H](Cc1ccccc1)NC(=O)c1cc3ccccc3n1C)CC1(CCCC1)O2 [Example 132, N-((2S,3R)-4-((S)-6-ethyl-2,2-spirocyclopentylchroman-4-ylamino)-3-hydroxy-1-phenylbutan-2-yl)-1-methyl-1H-indole-2-carboxamide]
≤ 5 | CCc1cnc2c(c1)[C@@H](NC[C@@H](O)[C@H](Cc1ccccc1)NC(=O)c1ncccc1F)CC1(CCC1)O2 [Example 97, N-((1S,2R)-3-(((4′S)-6′-ethyl-3′,4′-dihydrospiro[cyclobutane-1,2′-pyrano[2,3-b]pyridin]-4′-yl)amino)-2-hydroxy-1-(phenylmethyl)propyl)-3-fluoro-2-pyridinecarboxamide]
≤ 5 | CCc1ccc2c(c1)[C@@H](NC[C@@H](O)[C@H](Cc1ccccc1)NC(=O)c1cc(C)nc(Cl)c1)CC1(CCCC1)O2 [Example 182, 2-chloro-N-((2S,3R)-4-((S)-6-ethyl-2,2-spirocyclopentylchroman-4-ylamino)-3-hydroxy-1-phenylbutan-2-yl)-6-methylisonicotinamide]
≤ 5 | CCc1ccc2c(c1)[C@@H](NC[C@@H](O)[C@H](Cc1ccccc1)NC(=O)c1ccnc(N3CCCCC3)c1)CC1(CCCC1)O2 [Example 167, N-((2S,3R)-4-((S)-6-ethyl-2,2-spirocyclopentylchroman-4-ylamino)-3-hydroxy-1-phenylbutan-2-yl)-2-(piperidin-1-yl)isonicotinamide]
≤ 5 | CC1CCCN(c2cc(C(=O)NC(Cc3ccccc3)C(O)CNC3CC4(CCCC4)Oc4ccc(C(C)C)cc43)ccn2)C1 [Example 82, N-((2S,3R)-3-hydroxy-4-((S)-6-isopropyl-2,2-spirocyclopentylchroman-4-ylamino)-1-phenylbutan-2-yl)-2-(3-methylpiperidin-1-yl)isonicotinamide]
≤ 5 | CCc1ccc2c(c1)[C@@H](NC[C@@H](O)[C@H](Cc1ccccc1)NC(=O)c1cc(C3CCCC3)cc(-n3cc(C#N)c4ccccc43)c1)CC1(CCCC1)O2 [Example 24, 3-(3-cyano-1H-indol-1-yl)-5-cyclopentyl-N-((2S,3R)-4-((S)-6-ethyl-2,2-cyclopentyl-chroman-4-ylamino)-3-hydroxy-1-phenylbutan-2-yl)benzamide]
≤ 5 | CCc1cc2c(cc1F)OC1(CCC1)C[C@@H]2NC[C@@H](O)[C@H](Cc1ccccc1)NC(=O)c1ccc(F)c(N2CCCC2=O)c1 [Example 64, N-((1S,2R)-3-(((4S)-6-ethyl-7-fluoro-3,4-dihydrospiro[chromene-2,1′-cyclobutan]-4-yl)amino)-2-hydroxy-1-(phenylmethyl)propyl)-4-fluoro-3-(2-oxo-1-pyrrolidinyl)benzamide]
≤ 5 | CCc1ccc2c(c1)[C@@H](NC[C@@H](O)[C@H](Cc1ccccc1)NC(=O)c1cccc3c1OCC3)CC1(CCCC1)O2 [Example 171, N-((2S,3R)-4-((S)-6-ethyl-2,2-spirocyclopentylchroman-4-ylamino)-3-hydroxy-1-phenylbutan-2-yl)-2,3-dihydrobenzofuran-7-carboxamide]
≤ 5 | CCc1ccc2c(c1)[C@@H](NC[C@@H](O)[C@H](Cc1ccccc1)NC(=O)c1cc(-c3ccccc3F)cc(C3CCCC3)c1)CC1(CCCC1)O2 [Example 7, 3-cyclopentyl-N-((2S,3R)-4-((S)-6-ethyl-2,2-spirocyclopentylchroman-4-ylamino)-3-hydroxy-1-phenylbutan-2-yl)-5-(2-fluorophenyl)benzamide]
≤ 5 | CCc1ccc2c(c1)[C@@H](NC[C@@H](O)[C@H](Cc1ccccc1)NC(=O)c1ccc(OC3CCCC3)nn1)CC1(CCC1)O2 [Example 87, 6-(cyclopentyloxy)-N-((2S,3R)-4-((S)-6-ethyl-2,2-spirocyclobutyl-chroman-4-ylamino)-3-hydroxy-1-phenylbutan-2-yl)pyridazine-3-carboxamide]
≤ 5 | CCc1ccc2c(c1)[C@@H](NC[C@@H](O)[C@H](Cc1ccccc1)NC(=O)c1cccc(-c3ccccn3)c1)CC1(CCCC1)O2 [Example 106]
≤ 5 | CCc1ccc2c(c1)C(NCC(O)C(Cc1ccccc1)NC(=O)c1cc(-c3ccccc3F)nc(N3CCCC(C)C3)c1)CC1(CCCC1)O2 [Example 185, N-((2S,3R)-4-((S)-6-ethyl-2,2-spirocyclopentylchroman-4-ylamino)-3-hydroxy-1-phenylbutan-2-yl)-2-(2-fluorophenyl)-6-(3-methylpiperidin-1-yl)isonicotinamide]
≤ 5 | CCc1ccc2c(c1)[C@@H](NC[C@@H](O)[C@H](Cc1ccccc1)NC(=O)c1cccc(N3CCCC3=O)c1F)CC1(CCC1)O2 [Example 36, N-((2S,3R)-4-((S)-6-ethyl-2,2spirocyclobutylchroman-4-ylamino)-3-hydroxy-1-phenylbutan-2-yl)-2-fluoro-3-(2-oxopyrrolidin-1-yl)benzamide]
≤ 5 | CCc1ccc2c(c1)[C@@H](NC[C@@H](O)[C@H](Cc1ccccc1)NC(=O)c1ccnc(N3CCCCC3)c1)CC1(CCCCC1)O2 [Example 78, N-((2S,3R)-4-((S)-6-ethyl-2,2-spirocyclohexylchroman-4-ylamino)-3-hydroxy-1-phenylbutan-2-yl)-2-(piperidin-1-yl)isonicotinamide]
≤ 5 | CCc1ccc2c(c1)[C@@H](NC[C@@H](O)[C@H](Cc1ccccc1)NC(=O)c1ccnc(-c3ccccc3F)c1)CC1(CCC1)O2 [Example 51, N-((1S,2R)-3-(((4S)-6-ethyl-3,4-dihydrospiro[chromene-2,1′-cyclobutan]-4-yl)amino)-2-hydroxy-1-(phenylmethyl)propyl)-2-(2-fluorophenyl)-4-pyridinecarboxamide]
≤ 5 | CCc1ccc2c(c1)[C@@H](NC[C@@H](O)[C@H](Cc1ccccc1)NC(=O)c1ccnc(N3CCCC3)c1)CC1(CCCC1)O2 [Example 168, N-((2S,3R)-4-((S)-6-ethyl-2,2-spiroclopentylchroman-4-ylamino)-3-hydroxy-1-phenylbutan-2-yl)-2-(pyrrolidin-1-yl)isonicotinamide]
≤ 5 | CCc1ccc2c(c1)[C@@H](NC[C@@H](O)[C@H](Cc1ccccc1)NC(=O)c1cc(C3CCCC3)cc(-n3cccc3C#N)c1)CC1(CCCC1)O2 [Example 22, 3-(2-cyano-1H-pyrrol-1-yl)-5-cyclopentyl-N-((2S,3R)-4-((S)-6-ethyl-2,2-cyclopentyl-chroman-4-ylamino)-3-hydroxy-1-phenylbutan-2-yl)benzamide]
≤ 5 | CCc1ccc2c(c1)[C@@H](NC[C@@H](O)[C@H](Cc1ccccc1)NC(=O)c1ccccc1F)CC(C)(C)O2 [Example 47, N-((1S,2R)-3-(((4S)-6-ethyl-2,2-dimethyl-3,4-dihydro-2H-chromen-4-yl)amino)-2-hydroxy-1-(phenylmethyl)propyl)-2-fluorobenzamide]
≤ 5 | CCc1ccc2c(c1)C(NCC(O)C(Cc1ccccc1)NC(=O)c1cccc(C3CCCN3C(=O)OC(C)(C)C)c1)CC1(CCCC1)O2 [Example 33, tert-butyl 2-(3-(((2S,3R)-4-((S)-6-ethyl-2,2-spirocyclopentylchroman-4-ylamino)-3-hydroxy-1-phenylbutan-2-yl)carbamoyl)phenyl) pyrrolidine-1-carboxylate]
≤ 5 | CCc1ccc2c(c1)[C@@H](NC[C@@H](O)[C@H](Cc1ccccc1)NC(=O)c1ccnc(N3CCCCCC3)c1)CC1(CCCC1)O2 [Example 174, 2-(azepan-1-yl)-N-((2S,3R)-4-((S)-6-ethyl-2,2-spirocyclopentylchroman-4-ylamino)-3-hydroxy-1-phenylbutan-2-yl)isonicotinamide]
≤ 5 | Cc1cc(C(=O)N[C@@H](Cc2ccccc2)[C@H](O)CN[C@H]2CC3(CCC3)Oc3ccc(Br)cc32)nn1C [Example 160, N-((1S,2R)-3-(((4S)-6-bromo-3,4-dihydrospiro[chromene-2,1′-cyclobutan]-4-yl)amino)-2-hydroxy-1-(phenylmethyl)propyl)-1,5-dimethyl-1H-pyrazole-3-carboxamide]
≤ 5 | CCc1ccc2c(c1)[C@@H](NC[C@@H](O)[C@H](Cc1ccccc1)NC(=O)c1ccc(F)c(N3CCCC3=O)c1)CC1(CCCC1)O2 [Example 58, N-((2S,3R)-4-((S)-6-ethyl-2,2-spirocyclopentylchroman-4-ylamino)-3-hydroxy-1-phenylbutan-2-yl)-4-fluoro-3-(2-oxopyrrolidin-1-yl)benzamide]
